The series deals with T1, ZF5C clone A25 GAL4 activation domain fusion (Homo sapiens) (UniProt O43829).
T1 sequence (looked up): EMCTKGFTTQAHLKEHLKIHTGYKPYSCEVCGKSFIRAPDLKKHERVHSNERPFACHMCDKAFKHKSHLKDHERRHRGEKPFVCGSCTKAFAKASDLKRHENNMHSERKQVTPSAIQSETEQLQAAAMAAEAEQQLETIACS
In words: one hybrid. The settings on record: yeast LacZ activation; protein in cells; protein details: GAL4 activation domain (pGAD-GH).

Results on 1 sequence are retold here after US20020182595, “Method of identifying cellular regulators of adeno-associated virus (AAV)” (published 2002).

The exact form of at least one protein or probe is not confirmed. Results from cells or extracts need not show a direct contact. Protein sequences can lack the tags named with them.

Take “AGCTTCAGTGAGCGAGCGAGCGCGCAGGTTCGAAGTGAGCGAGCGAGCGCGCAGGTGAGCGAGCGAGCGCGCAGC (double strand) [three tandem RRS upstream of LacZ (YM.RRS3.LacZ)]”: the binding result is “binds”.
